# The campaign covered roughly 320,000 compounds. About 620 (0.19%) were called active. Cut-off read from the data, not from the text of the source: active = activation above about 80%; inconclusive = between about 30% and that limit; inactive = weaker than that. Inconclusive means that the source gave no clear call.
# By UniProt entry, the sequences of proteins in these tests, tags left out.
# UniProt Q8NER1, whole entry, looked up: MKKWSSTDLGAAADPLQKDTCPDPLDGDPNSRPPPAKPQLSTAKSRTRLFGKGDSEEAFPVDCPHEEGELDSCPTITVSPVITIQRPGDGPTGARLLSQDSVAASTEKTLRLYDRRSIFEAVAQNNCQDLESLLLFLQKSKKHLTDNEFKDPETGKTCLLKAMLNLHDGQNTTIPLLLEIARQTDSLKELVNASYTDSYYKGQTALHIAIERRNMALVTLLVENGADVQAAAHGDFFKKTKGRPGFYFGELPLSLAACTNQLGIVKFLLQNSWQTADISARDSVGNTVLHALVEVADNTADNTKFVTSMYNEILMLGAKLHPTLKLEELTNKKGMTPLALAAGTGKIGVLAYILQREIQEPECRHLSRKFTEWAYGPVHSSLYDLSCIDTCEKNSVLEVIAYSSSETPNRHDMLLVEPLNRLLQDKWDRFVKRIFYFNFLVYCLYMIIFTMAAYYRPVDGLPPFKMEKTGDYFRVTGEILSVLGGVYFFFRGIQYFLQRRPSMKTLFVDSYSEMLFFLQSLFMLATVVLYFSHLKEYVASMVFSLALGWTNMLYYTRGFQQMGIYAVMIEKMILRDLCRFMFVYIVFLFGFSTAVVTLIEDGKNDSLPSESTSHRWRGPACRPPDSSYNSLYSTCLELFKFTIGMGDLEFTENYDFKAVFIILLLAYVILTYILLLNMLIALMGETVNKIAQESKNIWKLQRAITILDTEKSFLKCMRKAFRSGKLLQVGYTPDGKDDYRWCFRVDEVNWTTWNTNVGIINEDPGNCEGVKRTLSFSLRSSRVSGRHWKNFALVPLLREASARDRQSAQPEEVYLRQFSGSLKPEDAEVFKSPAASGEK
# Target: Transient receptor potential cation channel subfamily V member 1 (Homo sapiens) (UniProt Q8NER1)
# Test: HTS Assay for Compounds that Act as Agonists of the Vanilloid Receptor 1; note: 0% is about no effect
# Conditions: TRPV1-expressing cells, Fluo-8 calcium influx, agonist mode; at 8.33 µM, hits give high values
# Text: The transient receptor potential ion channel, family V, number 1, (TRPV1) is one of the most important molecular transducers of painful stimuli and a potential target for analgesic drug development. Although recent clinical trials with orthosteric antagonists have not produced a successful drug because of a hyperthermia side effect and their tendency to block thermal noxious pain, this ion channel is undeniably well placed in the pain pathway, and the idea of blocking pain signals before they enter the CNS is an excellent concept and of proven efficacy when TRPV1 agonists are used. […]
# Upon TRPV1 activation in TRPV1 cells, the channel opens and extracellular cations flow through the channel into the cytosol. […] The amount of accumulated calcium is precisely quantified using the FDSS kinetic reader and the calcium dye. […] Plates will be loaded into the FDSS kinetic reader and a 1 sec / cycle for 10 second baseline signal will be measured. Compound library will then be added with a pintool at 23 nl and measured kinetically for 3 minutes. This portion of the read is considered the agonist portion of the screen. […] Signal will be measured kinetically for an additional 2 minutes. This portion of the read is considered the allosteric enhancer portion of the screen. The FDSS reader has a standard filter set capable of measuring calcium bound Fluo-8 (ex=480 and em=520 nm).
row,Structure (SMILES),activation
1,CCc1nnc(NS(=O)(=O)c2ccc(N/C=C(\C=O)c3nc4cc(Cl)ccc4o3)cc2)s1,inconclusive: 35.1%
